# In paper PMC9132982, “Inhibitory role of proguanil on the growth of bladder cancer via enhancing EGFR degradation and inhibiting its downstream signaling pathway to induce autophagy” (Cell Death & Disease, 2022):
# Amino acid sequences for entries named in this document (tags omitted).
# UniProt Q03135: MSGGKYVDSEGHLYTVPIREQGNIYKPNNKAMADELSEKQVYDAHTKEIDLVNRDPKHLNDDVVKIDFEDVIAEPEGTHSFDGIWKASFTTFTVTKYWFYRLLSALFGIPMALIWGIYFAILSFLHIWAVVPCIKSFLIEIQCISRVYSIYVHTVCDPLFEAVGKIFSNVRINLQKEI
# Results are given in words; binding and its absence hold for the method and conditions named. Binding seen in cells or lysates may run through a third protein. Some entries that bind do so weakly or less than the wild type.
# Target: epidermal growth factor receptor (human (endogenous in T24)) (UniProt P00533)
# Assay: co-IP; T24 cells starved for 12 h and then treated with proguanil; lysates immunoprecipitated with EGFR antibody (protein A/G, overnight at 4 °C); immunoprecipitates tested by Western blot
substance,measurement,value
Caveolin-1 (from UniProt Q03135 1-178),binding,binds
